Assay results published in PMC12442633.
These are yes or no findings as the source states them, for the method shown. For part of these data: Binding seen in cells or lysates may run through a third protein. Some entries that bind do so weakly or less than the wild type. For part of these data: Tags and fused reporters may be left off the sequences shown. Each block holds one binder with its values, some of them ahead of it.

Assays:
GST-USP8 (human) = biological target: T1, GST-USP8 (human) (UniProt P40818); assay: pull-down; USP8 and MDA5 purified from BL21 E. coli; direct interaction; which protein was held is not stated; both purified
T1 sequence: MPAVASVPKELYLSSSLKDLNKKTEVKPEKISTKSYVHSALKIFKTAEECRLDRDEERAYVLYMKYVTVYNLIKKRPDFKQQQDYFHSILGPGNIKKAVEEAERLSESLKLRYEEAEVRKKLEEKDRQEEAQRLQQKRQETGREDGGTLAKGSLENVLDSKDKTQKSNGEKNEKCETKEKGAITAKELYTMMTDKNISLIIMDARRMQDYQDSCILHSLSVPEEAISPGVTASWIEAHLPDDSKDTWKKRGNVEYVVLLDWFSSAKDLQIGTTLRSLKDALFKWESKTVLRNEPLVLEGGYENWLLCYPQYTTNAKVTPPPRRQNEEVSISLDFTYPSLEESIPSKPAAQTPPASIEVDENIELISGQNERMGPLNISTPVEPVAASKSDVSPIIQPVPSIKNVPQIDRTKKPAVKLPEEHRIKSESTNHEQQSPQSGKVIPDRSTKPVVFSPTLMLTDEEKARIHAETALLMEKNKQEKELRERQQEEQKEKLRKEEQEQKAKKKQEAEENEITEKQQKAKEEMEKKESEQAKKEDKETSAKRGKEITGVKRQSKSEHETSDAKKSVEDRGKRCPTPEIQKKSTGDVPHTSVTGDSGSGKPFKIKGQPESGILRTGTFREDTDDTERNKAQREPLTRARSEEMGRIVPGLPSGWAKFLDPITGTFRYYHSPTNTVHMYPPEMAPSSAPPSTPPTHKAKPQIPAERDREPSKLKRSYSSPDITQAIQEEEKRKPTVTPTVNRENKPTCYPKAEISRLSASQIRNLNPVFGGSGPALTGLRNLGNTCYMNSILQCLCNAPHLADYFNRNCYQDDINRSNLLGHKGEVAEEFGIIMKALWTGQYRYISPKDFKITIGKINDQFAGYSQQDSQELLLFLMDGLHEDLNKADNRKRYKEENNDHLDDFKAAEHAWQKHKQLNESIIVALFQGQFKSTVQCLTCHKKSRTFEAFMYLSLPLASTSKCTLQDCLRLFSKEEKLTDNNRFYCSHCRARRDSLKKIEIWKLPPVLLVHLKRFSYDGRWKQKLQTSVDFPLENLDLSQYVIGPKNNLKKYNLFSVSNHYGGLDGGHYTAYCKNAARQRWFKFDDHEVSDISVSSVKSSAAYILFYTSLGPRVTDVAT

[1] = biological target: T2, MDA5 stably overexpressed in THP1 cells (UniProt Q9BYX4); assay: pull-down; THP1 cells stably overexpressing MDA5, infected with EMCV as indicated (Poly(I:C) HMW in Figure S1F); endogenous USP8 detected
T2 sequence: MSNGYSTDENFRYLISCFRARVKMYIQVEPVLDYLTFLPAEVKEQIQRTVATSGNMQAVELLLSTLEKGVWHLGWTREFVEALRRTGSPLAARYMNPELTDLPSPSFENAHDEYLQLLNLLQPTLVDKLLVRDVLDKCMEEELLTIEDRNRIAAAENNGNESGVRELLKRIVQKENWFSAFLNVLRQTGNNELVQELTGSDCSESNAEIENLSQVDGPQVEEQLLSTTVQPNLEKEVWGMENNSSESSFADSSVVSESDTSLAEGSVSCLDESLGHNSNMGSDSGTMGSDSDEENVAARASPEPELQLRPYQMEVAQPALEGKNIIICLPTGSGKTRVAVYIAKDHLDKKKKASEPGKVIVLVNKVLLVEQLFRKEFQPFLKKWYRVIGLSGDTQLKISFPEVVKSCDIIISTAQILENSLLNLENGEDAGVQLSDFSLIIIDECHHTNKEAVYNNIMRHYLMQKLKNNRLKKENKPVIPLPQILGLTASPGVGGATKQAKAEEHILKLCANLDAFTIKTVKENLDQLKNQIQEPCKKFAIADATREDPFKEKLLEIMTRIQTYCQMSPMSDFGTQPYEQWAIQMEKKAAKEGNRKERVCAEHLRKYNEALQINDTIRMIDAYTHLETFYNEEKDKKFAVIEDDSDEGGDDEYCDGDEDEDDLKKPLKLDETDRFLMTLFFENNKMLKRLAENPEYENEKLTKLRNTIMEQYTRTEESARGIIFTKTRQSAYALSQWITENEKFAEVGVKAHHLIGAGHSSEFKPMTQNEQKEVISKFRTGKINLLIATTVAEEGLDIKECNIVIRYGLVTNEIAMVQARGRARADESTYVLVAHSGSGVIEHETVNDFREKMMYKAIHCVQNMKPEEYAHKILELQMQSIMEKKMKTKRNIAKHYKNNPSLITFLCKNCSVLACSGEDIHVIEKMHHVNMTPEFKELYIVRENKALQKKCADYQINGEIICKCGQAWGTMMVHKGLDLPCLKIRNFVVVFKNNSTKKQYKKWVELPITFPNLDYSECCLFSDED

SFB-MDA5 = biological target: T3, SFB-MDA5 (UniProt Q9BYX4); assay: pull-down; HEK293T cells co-transfected; NP-40 lysis buffer (20 mM Tris-HCl pH 8.0, 150 mM NaCl, 1% NP-40, 10% glycerol, 2 mM EDTA); S-protein agarose at 4 °C overnight; immunoblot
T3 sequence: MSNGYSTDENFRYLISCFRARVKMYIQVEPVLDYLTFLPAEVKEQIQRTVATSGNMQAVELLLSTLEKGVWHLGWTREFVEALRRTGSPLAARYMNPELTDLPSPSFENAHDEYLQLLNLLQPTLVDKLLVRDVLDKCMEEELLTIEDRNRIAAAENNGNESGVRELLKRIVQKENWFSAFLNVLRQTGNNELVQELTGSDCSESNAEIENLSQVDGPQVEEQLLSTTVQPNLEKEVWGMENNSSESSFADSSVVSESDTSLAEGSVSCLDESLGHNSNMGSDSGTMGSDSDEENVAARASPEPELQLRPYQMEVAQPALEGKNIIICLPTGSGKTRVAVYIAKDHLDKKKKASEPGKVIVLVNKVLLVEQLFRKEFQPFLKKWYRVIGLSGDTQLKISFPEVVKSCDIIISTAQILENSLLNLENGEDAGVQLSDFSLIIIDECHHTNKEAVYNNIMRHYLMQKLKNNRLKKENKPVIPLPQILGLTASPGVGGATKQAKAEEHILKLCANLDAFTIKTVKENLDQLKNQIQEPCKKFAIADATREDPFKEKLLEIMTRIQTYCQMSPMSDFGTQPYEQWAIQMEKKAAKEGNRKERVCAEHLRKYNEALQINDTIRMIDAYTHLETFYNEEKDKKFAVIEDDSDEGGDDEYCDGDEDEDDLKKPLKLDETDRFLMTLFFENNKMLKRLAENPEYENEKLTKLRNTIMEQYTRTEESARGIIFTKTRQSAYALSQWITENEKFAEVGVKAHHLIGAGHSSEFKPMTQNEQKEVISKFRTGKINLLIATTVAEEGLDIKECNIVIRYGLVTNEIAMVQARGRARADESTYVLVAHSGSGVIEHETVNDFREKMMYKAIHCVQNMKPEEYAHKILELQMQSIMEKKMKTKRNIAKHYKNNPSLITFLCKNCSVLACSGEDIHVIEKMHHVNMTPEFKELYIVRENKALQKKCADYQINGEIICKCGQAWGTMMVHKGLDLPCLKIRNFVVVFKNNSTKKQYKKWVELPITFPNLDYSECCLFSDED

- binding (GST-USP8 (human)): binds
B1: His-MDA5 (protein, UniProt Q9BYX4 1-1025)
chain: MSNGYSTDENFRYLISCFRARVKMYIQVEPVLDYLTFLPAEVKEQIQRTVATSGNMQAVELLLSTLEKGVWHLGWTREFVEALRRTGSPLAARYMNPELTDLPSPSFENAHDEYLQLLNLLQPTLVDKLLVRDVLDKCMEEELLTIEDRNRIAAAENNGNESGVRELLKRIVQKENWFSAFLNVLRQTGNNELVQELTGSDCSESNAEIENLSQVDGPQVEEQLLSTTVQPNLEKEVWGMENNSSESSFADSSVVSESDTSLAEGSVSCLDESLGHNSNMGSDSGTMGSDSDEENVAARASPEPELQLRPYQMEVAQPALEGKNIIICLPTGSGKTRVAVYIAKDHLDKKKKASEPGKVIVLVNKVLLVEQLFRKEFQPFLKKWYRVIGLSGDTQLKISFPEVVKSCDIIISTAQILENSLLNLENGEDAGVQLSDFSLIIIDECHHTNKEAVYNNIMRHYLMQKLKNNRLKKENKPVIPLPQILGLTASPGVGGATKQAKAEEHILKLCANLDAFTIKTVKENLDQLKNQIQEPCKKFAIADATREDPFKEKLLEIMTRIQTYCQMSPMSDFGTQPYEQWAIQMEKKAAKEGNRKERVCAEHLRKYNEALQINDTIRMIDAYTHLETFYNEEKDKKFAVIEDDSDEGGDDEYCDGDEDEDDLKKPLKLDETDRFLMTLFFENNKMLKRLAENPEYENEKLTKLRNTIMEQYTRTEESARGIIFTKTRQSAYALSQWITENEKFAEVGVKAHHLIGAGHSSEFKPMTQNEQKEVISKFRTGKINLLIATTVAEEGLDIKECNIVIRYGLVTNEIAMVQARGRARADESTYVLVAHSGSGVIEHETVNDFREKMMYKAIHCVQNMKPEEYAHKILELQMQSIMEKKMKTKRNIAKHYKNNPSLITFLCKNCSVLACSGEDIHVIEKMHHVNMTPEFKELYIVRENKALQKKCADYQINGEIICKCGQAWGTMMVHKGLDLPCLKIRNFVVVFKNNSTKKQYKKWVELPITFPNLDYSECCLFSDED

- binding [1]: binds
B2: endogenous USP8 (enzyme, UniProt P40818 1-1118)
chain: MPAVASVPKELYLSSSLKDLNKKTEVKPEKISTKSYVHSALKIFKTAEECRLDRDEERAYVLYMKYVTVYNLIKKRPDFKQQQDYFHSILGPGNIKKAVEEAERLSESLKLRYEEAEVRKKLEEKDRQEEAQRLQQKRQETGREDGGTLAKGSLENVLDSKDKTQKSNGEKNEKCETKEKGAITAKELYTMMTDKNISLIIMDARRMQDYQDSCILHSLSVPEEAISPGVTASWIEAHLPDDSKDTWKKRGNVEYVVLLDWFSSAKDLQIGTTLRSLKDALFKWESKTVLRNEPLVLEGGYENWLLCYPQYTTNAKVTPPPRRQNEEVSISLDFTYPSLEESIPSKPAAQTPPASIEVDENIELISGQNERMGPLNISTPVEPVAASKSDVSPIIQPVPSIKNVPQIDRTKKPAVKLPEEHRIKSESTNHEQQSPQSGKVIPDRSTKPVVFSPTLMLTDEEKARIHAETALLMEKNKQEKELRERQQEEQKEKLRKEEQEQKAKKKQEAEENEITEKQQKAKEEMEKKESEQAKKEDKETSAKRGKEITGVKRQSKSEHETSDAKKSVEDRGKRCPTPEIQKKSTGDVPHTSVTGDSGSGKPFKIKGQPESGILRTGTFREDTDDTERNKAQREPLTRARSEEMGRIVPGLPSGWAKFLDPITGTFRYYHSPTNTVHMYPPEMAPSSAPPSTPPTHKAKPQIPAERDREPSKLKRSYSSPDITQAIQEEEKRKPTVTPTVNRENKPTCYPKAEISRLSASQIRNLNPVFGGSGPALTGLRNLGNTCYMNSILQCLCNAPHLADYFNRNCYQDDINRSNLLGHKGEVAEEFGIIMKALWTGQYRYISPKDFKITIGKINDQFAGYSQQDSQELLLFLMDGLHEDLNKADNRKRYKEENNDHLDDFKAAEHAWQKHKQLNESIIVALFQGQFKSTVQCLTCHKKSRTFEAFMYLSLPLASTSKCTLQDCLRLFSKEEKLTDNNRFYCSHCRARRDSLKKIEIWKLPPVLLVHLKRFSYDGRWKQKLQTSVDFPLENLDLSQYVIGPKNNLKKYNLFSVSNHYGGLDGGHYTAYCKNAARQRWFKFDDHEVSDISVSSVKSSAAYILFYTSLGPRVTDVAT

- binding (SFB-MDA5): binds
B3: Myc-USP8 (enzyme, UniProt P40818 1-1118)
chain: MPAVASVPKELYLSSSLKDLNKKTEVKPEKISTKSYVHSALKIFKTAEECRLDRDEERAYVLYMKYVTVYNLIKKRPDFKQQQDYFHSILGPGNIKKAVEEAERLSESLKLRYEEAEVRKKLEEKDRQEEAQRLQQKRQETGREDGGTLAKGSLENVLDSKDKTQKSNGEKNEKCETKEKGAITAKELYTMMTDKNISLIIMDARRMQDYQDSCILHSLSVPEEAISPGVTASWIEAHLPDDSKDTWKKRGNVEYVVLLDWFSSAKDLQIGTTLRSLKDALFKWESKTVLRNEPLVLEGGYENWLLCYPQYTTNAKVTPPPRRQNEEVSISLDFTYPSLEESIPSKPAAQTPPASIEVDENIELISGQNERMGPLNISTPVEPVAASKSDVSPIIQPVPSIKNVPQIDRTKKPAVKLPEEHRIKSESTNHEQQSPQSGKVIPDRSTKPVVFSPTLMLTDEEKARIHAETALLMEKNKQEKELRERQQEEQKEKLRKEEQEQKAKKKQEAEENEITEKQQKAKEEMEKKESEQAKKEDKETSAKRGKEITGVKRQSKSEHETSDAKKSVEDRGKRCPTPEIQKKSTGDVPHTSVTGDSGSGKPFKIKGQPESGILRTGTFREDTDDTERNKAQREPLTRARSEEMGRIVPGLPSGWAKFLDPITGTFRYYHSPTNTVHMYPPEMAPSSAPPSTPPTHKAKPQIPAERDREPSKLKRSYSSPDITQAIQEEEKRKPTVTPTVNRENKPTCYPKAEISRLSASQIRNLNPVFGGSGPALTGLRNLGNTCYMNSILQCLCNAPHLADYFNRNCYQDDINRSNLLGHKGEVAEEFGIIMKALWTGQYRYISPKDFKITIGKINDQFAGYSQQDSQELLLFLMDGLHEDLNKADNRKRYKEENNDHLDDFKAAEHAWQKHKQLNESIIVALFQGQFKSTVQCLTCHKKSRTFEAFMYLSLPLASTSKCTLQDCLRLFSKEEKLTDNNRFYCSHCRARRDSLKKIEIWKLPPVLLVHLKRFSYDGRWKQKLQTSVDFPLENLDLSQYVIGPKNNLKKYNLFSVSNHYGGLDGGHYTAYCKNAARQRWFKFDDHEVSDISVSSVKSSAAYILFYTSLGPRVTDVAT
